Measurements: the supplement of paper PMC12823440, “Inhibitors supercharge kinase turnover through native proteolytic circuits” (Nature, 2025)
Structures can show the parent of a compound that is named as a salt. This is one part of the list. The calls rarely recur for the same compound in another form.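 In K562 cells expressing nanoluciferase-fused kinases, luminescence was recorded at 4 h intervals between 2 and 18 h, normalized as percent of control with DMSO at 100% and a positive control at 0%. A significant (2 sigma) signal drop marks a time point as decreased. The authors' rule for a hit is not shown and takes in more than the number of time points.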

Chains of the proteins cited; added tags and fusions are not shown. Lines headed by an entry give the natural chain unless they say otherwise; changes in a name come on top.
UniProt Q00526: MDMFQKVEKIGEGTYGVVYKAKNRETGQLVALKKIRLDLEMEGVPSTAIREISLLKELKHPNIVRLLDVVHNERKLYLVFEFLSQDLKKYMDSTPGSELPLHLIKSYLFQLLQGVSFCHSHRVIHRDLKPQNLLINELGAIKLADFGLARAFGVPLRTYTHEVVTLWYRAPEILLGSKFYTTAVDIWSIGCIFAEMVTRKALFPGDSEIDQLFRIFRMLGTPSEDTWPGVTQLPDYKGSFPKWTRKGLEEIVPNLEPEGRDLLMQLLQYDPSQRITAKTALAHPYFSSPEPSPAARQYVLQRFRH

Biological target: CDK3 (UniProt Q00526)
Experiment: kinase-Nluc reporter destabilization hit call (1 = scored as downregulated) (binary); higher = compound decreases kinase abundance
Details: K562; 2-18 h

kinase-Nluc reporter destabilization hit call, inactive:
O=c1cc(O)cc(/C=C/c2ccc(O)c(O)c2)o1 [Hispidin] (10 µM) 0
CC1CN(C(=O)Nc2ccc(Cl)c(Cl)c2)C(=Nc2ccc(F)cc2)S1 (stereo not given) (10 µM) 0
COc1cc2c[n+](C)c3c4cc5c(cc4ccc3c2cc1OC)OCO5 [Nitidine (chloride)] (2 µM) 0
Cc1c(CN2CCN(S(C)(=O)=O)CC2)sc2c(N3CCOCC3)nc(-c3cnc(N)nc3)nc12 (2.5 µM) 0
Cc1cc([C@H](C)Nc2ccccc2)c2oc(N3CCOCC3)cc(=O)c2c1 (10 µM) 0
O=C(CNC(=O)c1ccc(-c2ccccc2)cc1)NC1CCCc2ccccc21 (stereo not given) [TAO Kinase inhibitor 1] (10 µM) 0
Cn1cc(-c2ccc(CNc3cc(-c4cnc5cc(OCCCN6CCCC6)ccn45)ncn3)cc2)cn1 (10 µM) 0
Cc1ccc(S(=O)(=O)Nc2ccccc2C=Nc2ccccc2NS(=O)(=O)c2ccc(C)cc2)cc1 (10 µM) 0
O=C(/C=C/c1ccc(O)c(O)c1)c1ccc(O[C@@H]2O[C@H](CO)[C@@H](O)[C@H](O)[C@H]2O)c(O)c1O [Marein] (10 µM) 0
O=C(NCCCNc1nc(Nc2cccc(NC(=O)N3CCCC3)c2)ncc1I)c1cccs1 (2.5 µM) 0
CN(CCNc1ccc2ncc(-c3ccc(C(N)=O)cc3)n2n1)C(=O)OC(C)(C)C (10 µM) 0
C=C(C)C(=O)Nc1cccc(-c2ncnc3[nH]cc(C(=O)OCC)c23)c1 (10 µM) 0
COc1ccc(C(=C2C(=O)Nc3ccccc32)c2ccc(OC)cc2)cc1 (10 µM) 0
CN1CCN(c2ccc(C(=O)Nc3cc(-c4cccc(NS(=O)(=O)c5ccccc5)c4)[nH]n3)cc2)CC1 [BPR1J-097 Hydrochloride] (2.5 µM) 0
C=CC(=O)Nc1cc2c(Nc3ccc(OCc4ccccn4)c(Cl)c3)ncnc2cc1OCCN1CCOCC1 (10 µM) 0
Cc1c(NC(=O)OC[C@@H]2COCCN2)cn2ncnc(Nc3ccc4c(cnn4Cc4cccc(F)c4)c3)c12 (10 µM) 0
CNc1nc(Nc2cnn(C3CCN(C4COC4)CC3F)c2Cl)ncc1C(F)(F)F (stereo not given) (10 µM) 0
O=C(NCCO)c1ccc2c(c1)nc(Nc1cccc(Cl)c1)c1ccncc12 [CK2 inhibitor 2] (10 µM) 0
N#CC(c1ccnc(NCCc2cccnc2)n1)c1nc2ccccc2s1 (stereo not given) (10 µM) 0
CCN(CC)S(=O)(=O)c1ccc(OC)c(N2CCN(C(=O)c3ccc(F)cc3C(F)(F)F)CC2)c1 (10 µM) 0
CO[C@H]1C[C@@H]2CC[C@@H](C)[C@@](O)(O2)C(=O)C(=O)N2CCCC[C@H]2C(=O)O[C@H]([C@H](C)C[C@@H]2CC[C@@H](O)[C@H](OC)C2)CC(=O)[C@H](C)/C=C(\C)[C@@H](O)[C@@H](OC)C(=O)[C@H](C)C[C@H](C)/C=C/C=C/C=C/1C [Rapamycin] (10 µM) 0
CN(C)CCN(Cc1ccc(Cl)cc1)c1ccccn1 [Chloropyramine hydrochloride] (10 µM) 0
O=C(Nc1ccc(F)cc1F)[C@H](NC(=S)Nc1cc(C(F)(F)F)cc(C(F)(F)F)c1)c1ccccc1 (2.5 µM) 0
Cc1ccc(Nc2cc(-c3cccc(N4C(=O)c5ccccc5C4=O)c3)ncn2)cc1NS(C)(=O)=O (10 µM) 0
CC(C)(C)c1ccc(S(=O)(=O)Nc2ccc(-n3ccnc3)cc2)cc1 (10 µM) 0
CCc1cc(O)c(F)cc1-c1ccc2c(-c3nc4c([nH]3)CN(C3CCN(C)CC3)CC4)n[nH]c2c1 [JAK-IN-5 (hydrochloride)] (2 µM) 0
CC1=C2C(=O)O[C@@H](c3ccoc3)[C@]2(C)CCC1 [Fraxinellone] (10 µM) 0
COc1cc(C(N)=O)nc(-c2cccc(C#C[C@]3(O)CCN(C)C3=O)c2)c1 (10 µM) 0
COc1ncc(-c2nc(N3CCOCC3)nc3c(CN4CCC(C(C)(C)O)CC4)cc(F)cc23)cc1NS(C)(=O)=O [Linperlisib] (10 µM) 0
Fc1ccc(-c2nc(-c3ccccc3F)[nH]c2-c2ccncc2)cc1 (2.5 µM) 0

Of the compounds above, these contain a tert-butyl group:
kinase-Nluc reporter destabilization hit call, inactive:
CN(CCNc1ccc2ncc(-c3ccc(C(N)=O)cc3)n2n1)C(=O)OC(C)(C)C (10 µM) 0
CC(C)(C)c1ccc(S(=O)(=O)Nc2ccc(-n3ccnc3)cc2)cc1 (10 µM) 0
